The values below are quoted from earlier work in publication PMC6927578 (Archiv der Pharmazie, 2016).

Broadly, the IC50 is the concentration that inhibits the measured activity by half.

The structures appear in SMILES notation.

For the data set, the system named is HDAC activity from HeLa cell lysates. The note with it: previously reported, included for comparison ref 29; cited from earlier work.

`O=C(CCCCCCC(=O)Nc1ccccc1)NO` [SAHA, suberoylanilide hydroxamic acid]: the IC50 is 90 ± 4 nM.
